According to PubChem BioAssay AID504444 (National Center for Advancing Translational Sciences (NCATS), 2011):
Out of some 360,000 compounds screened, about 7,500 (2.1%) were called active. Inconclusive results, whose numbers are uncertain, are shown with a selection of clear calls. The call rests on the fitted dose curve; in most records, active means well fitted inhibition curve with a large enough effect; inconclusive means small, poorly fitted or top-dose-only effect, or effect the other way; inactive means flat fitted curve, though single readings scatter. Potencies of inconclusive entries are doubtful fits and often do not repeat.
On the % scale 0 is the no-effect control and ±100 the full control effect; potency means the concentration at half of the fitted maximal effect.

Experiment: Nrf2 qHTS screen for inhibitors; further: nearly all actives have a fitted effect of over 60% in size
Conditions: A549 ARE-Fluc reporter, luciferase luminescence, 18-24 h; activity change, negative = inhibition: at 46 µM (top of the series)
In short: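 Concentration-response testing used A549 ARE_Fluc cells at 5000 cells/well. Following an 18-24 h compound incubation, viability was read by fluorescence (Ex 405/Em 525) and luciferase output by luminescence.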
In the case of `Cc1ccc(-c2nnc(SCC(=O)N/N=C/c3c(C)nn(-c4ccccc4)c3C)n2-c2ccc(C)cc2)cc1`, the Potency was inconclusive: 29.1 µM [falling, single point].
For `O=C(Nc1ccc(Cl)cc1)C1CCN(S(=O)(=O)c2ccc(Br)s2)CC1`, the Potency was active: 23.1 µM.
For `CCOC(=O)N1CCN(C(=O)C2CCN(S(=O)(=O)N(CC)CC)CC2)CC1`, the Potency was inconclusive: 1.84 µM [activator, partial curve, poor fit].
For `COc1cc2c(C(=O)N3CCN(c4ccccc4)CC3)c(C)oc2cc1Br`, the Potency was inconclusive: 32.6 µM [falling, single point].
In the case of `C=CCOc1ccc(C2C3=C(CCCC3=O)N(CC(=O)O)C3=C2C(=O)CCC3)cc1OCC`, the Potency was “inactive”.
In the case of `COc1ccccc1C(NC(C)=O)c1cc(Cl)c2cccnc2c1O` (stereo unspecified), the Potency was “inactive”.
With `CCOC(=O)c1cc(-c2ccc(/C=C3/C(=O)N(c4ccc(C(=O)O)cc4)N=C3C)o2)ccc1Cl` the Potency was “inactive”.
In the case of `CCOC(=O)c1c(C)[nH]c(C=O)c1Cc1cccc(Cl)c1`, the Potency was active: 25.9 µM.
In the case of `COc1ccc(C(=O)N2CCc3ccc(NC(=O)c4ccccn4)cc3C2)cc1F`, the Potency was inconclusive: 29.1 µM [falling, single point].
With `Clc1ccc(OCCSc2ncccn2)cc1` the Potency was inconclusive: 2.59 µM [activator, full curve].
In the case of `O=C(CN(Cc1ccco1)C(=O)c1ccccc1)Nc1ccc(Cl)c(Cl)c1`, the Potency was inconclusive: 29.1 µM [falling, single point].
With `COc1ccc(NC(=O)CN2C(=O)CC(c3ccco3)Sc3ccccc32)cc1OC` (stereo unspecified) the Potency was inconclusive: 11.6 µM [falling, partial curve, poor fit].
With `CCOc1cc(/C=C\c2[nH]c(=O)[nH]c(=O)c2[N+](=O)[O-])ccc1OC(C)CC` (stereo unspecified) the Potency was inconclusive: 32.6 µM [falling, single point].
With `CC(NC(=O)c1ccc([N+](=O)[O-])o1)C12CC3CC(CC(C3)C1)C2` (stereo unspecified) the Potency was “inactive”.
With `CCOC(=O)c1[nH]c2ccccc2c1NC(=S)Nc1ccccc1C` the Potency was inconclusive: 7.31 µM [activator, partial curve, poor fit].
In the case of `O=C(c1ccc(F)cc1)N1CCN(c2cc(N3CCCCC3)c(F)cc2[N+](=O)[O-])CC1`, the Potency was inconclusive: 29.1 µM [falling, single point].
With `Cc1nc2c(-c3ccccc3)c(C)[nH]n2c(=O)c1Cc1ccc(C(C)C)cc1` the Potency was active: 4.61 µM.
With `CNc1oc(-c2ccc(Cl)cc2)nc1P(=O)(c1ccccc1)c1ccccc1` the Potency was inconclusive: 29.1 µM [falling, single point].
With `Cn1c2ccsc2c2cnn(Cc3ccccc3F)c(=O)c21` the Potency was “inactive”.
With `Cc1nc2ccc(C(=O)Nc3cccc([N+](=O)[O-])c3)cc2s1` the Potency was “inactive”.
With `COC(=O)c1c(C)[nH]c(C(=O)/C=C/c2ccccc2Cl)c1C` the Potency was inconclusive: 1.64 µM [activator, full curve, poor fit].
In the case of `CCOc1ccc(N2C(=O)c3ccccc3NC2(C)CC)cc1` (stereo unspecified), the Potency was inconclusive: 2.31 µM [activator, full curve, poor fit].
With `CC(=O)N1c2ccccc2C(=O)C1N1CCN(c2cc(Cl)ccc2C)CC1` (stereo unspecified) the Potency was “inactive”.
For `O=C(c1cccs1)N1CCCC(N2CCN(c3cccc(C(F)(F)F)c3)CC2)C1` (stereo unspecified), the Potency was active: 20.6 µM.
For `CC(=O)c1ccc(N2CCN(S(=O)(=O)c3ccc4[nH]c5c(c4c3)CCCCC5)CC2)cc1`, the Potency was inconclusive: 20.6 µM [falling, single point].
For `CCC1CN(C(=O)Nc2ccccc2C(F)(F)F)c2ccccc2S1` (stereo unspecified), the Potency was inconclusive: 29.1 µM [activator, single point].
With `O=C(CCn1c(=O)[nH]c2ccsc2c1=O)N1CCN(c2ccc([N+](=O)[O-])cc2)CC1` the Potency was “inactive”.
In the case of `COc1ccc(C(=O)N/C(N)=N/c2nc3ccccc3o2)cc1`, the Potency was inconclusive: 18.4 µM [falling, single point].
For `O=C(COc1ccc(S(=O)(=O)N2CCOCC2)cc1)Nc1ccc(Cl)c(C(F)(F)F)c1`, the Potency was inconclusive: 20.6 µM [falling, partial curve, poor fit].
With `Cc1cc(C)c(S(=O)(=O)Nc2nnc(C(C)C)s2)c(C)c1` the Potency was “inactive”.
For `CC(=O)c1c(NCCc2ccccc2)cc(C)oc1=O`, the Potency was inconclusive: 41.1 µM [falling, partial curve, poor fit].
In the case of `COc1ccc(CNC(=O)C/C(C)=N/NC(=O)C(c2ccccc2)c2ccccc2)cc1`, the Potency was “inactive”.
In the case of `COc1cccc(N=CC2=C(O)CC(C)(C)CC2=O)c1`, the Potency was inconclusive: 14.6 µM [falling, partial curve, poor fit].
With `CC1Cc2ccccc2N1C(=O)CSc1nnnn1-c1ccc2c(c1)OCCO2` (stereo unspecified) the Potency was inconclusive: 25.9 µM [falling, partial curve].
In the case of `CCCCN(C)C(=O)Cn1ncc2c([nH]c3ccc(C)cc32)c1=O`, the Potency was inconclusive: 1.46 µM [falling, partial curve, poor fit].
For `Cc1cccc(N/N=C(\C(N)=O)C2=NC(C)(C)Cc3ccccc32)c1`, the Potency was inconclusive: 29.1 µM [falling, single point].
With `CCOC(=O)c1ccc(N2C(=O)c3n[nH]c(C)c3C2c2ccc(OC)cc2OC)cc1` (stereo unspecified) the Potency was active: 18.4 µM.
With `CCOC(=O)c1ccc(NC(=O)CCNS(=O)(=O)c2ccc3c(c2)oc(=O)n3C)cc1` the Potency was inconclusive: 6.51 µM [falling, single point].
In the case of `Cc1nn(-c2ccccc2)c(N2CCCC2)c1/C=N/NC(=O)c1cc(-c2ccccn2)nc2ccccc12`, the Potency was “inactive”.
In the case of `N#CCOC(=O)C1c2ccccc2Oc2ccccc21`, the Potency was inconclusive: 2.91 µM [falling, full curve, poor fit].
For `O=C(NCc1ccco1)c1ccccc1NS(=O)(=O)c1ccc(Br)s1`, the Potency was inconclusive: 23.1 µM [falling, single point].
For `C=CCn1c(SCC(=O)N2CC(=O)Nc3ccccc32)nc2scc(-c3cccs3)c2c1=O`, the Potency was inconclusive: 20.6 µM [falling, single point].
In the case of `O=C(Nc1ccc(S(=O)(=O)N2CCN(c3ccccc3)CC2)cc1)c1cccs1`, the Potency was inconclusive: 29.1 µM [falling, single point].
With `CC(C)(C)C(=O)CSc1ccc(S(=O)(=O)N2CCCC2)cn1` the Potency was inconclusive: 32.6 µM [falling, single point].
For `NC(=O)c1nsc(C(=O)N(c2ccc3c(c2)OCCO3)C(C(=O)NCC2CCCO2)c2ccc(F)cc2)c1N` (stereo unspecified), the Potency was inconclusive: 20.6 µM [activator, partial curve].
In the case of `O=C1CC(N2CCN(Cc3ccc4c(c3)OCO4)CC2)C(=O)N1CCc1ccccc1` (stereo unspecified), the Potency was inconclusive: 25.9 µM [falling, single point].
In the case of `Cc1nnc(N2CCCC(C(=O)NCc3ccc(OC(C)C)cc3)C2)c2nn(-c3ccccc3)c(C)c12` (stereo unspecified), the Potency was inconclusive: 13 µM [falling, partial curve, poor fit].
For `CN(C(=O)COC(=O)c1ccc(Cl)c(N)c1)c1ccccc1`, the Potency was inconclusive: 29.1 µM [activator, single point].
With `O=C1OCC/C1=C\c1ccc2c(c1)OCO2` the activity change, negative = inhibition was inconclusive: 55.5% [activator].
For `Cc1ccc(C(=O)Nc2cccc(N3C(=O)C4CCC(C)CC4C3=O)c2)cc1` (stereo unspecified), the Potency was inconclusive: 29.1 µM [falling, partial curve, poor fit].
In the case of `CN(C)c1ccc(N=C/C=C2/N(C)c3ccccc3C2(C)C)cc1`, the Potency was inconclusive: 32.6 µM [activator, single point].
For `Cc1ccc(N(CC(=O)Nc2ccc(C)cc2C)S(=O)(=O)N2CCCC2)cc1`, the Potency was inconclusive: 20.6 µM [falling, partial curve, poor fit].
For `Cn1c(O)c(N=NC(=N)N)c2ccccc21`, the Potency was inconclusive: 2.31 µM [activator, partial curve].
With `Cc1c2ccccc2cc(Cc2ccccc2)[n+]1C` the Potency was inconclusive: 6.51 µM [falling, full curve].
With `C=CCn1c(SCCC)nc2sc3c(c2c1=O)CCc1ccccc1-3` the Potency was inconclusive: 14.6 µM [activator, partial curve, poor fit].
In the case of `Cc1cc(Cl)ccc1OCC(=O)Nc1ccccc1NS(=O)(=O)c1cccs1`, the Potency was inconclusive: 29.1 µM [falling, single point].
With `CSc1nncc(/C(C)=N\Nc2ccccc2C)n1` the Potency was inconclusive: 4.11 µM [activator, full curve, poor fit].
For `CC(C)Oc1ccc(C(=O)OC(C)C(=O)NC2CCCCC2C)cc1` (stereo unspecified), the Potency was “inactive”.
For `CN(C(=O)CSc1nc2ccc(Cl)cc2[nH]1)C1CCS(=O)(=O)C1` (stereo unspecified), the Potency was “inactive”.
With `COc1cccc(-c2nc(CS(=O)(=O)CC(=O)NC3CCCC3)c(C)o2)c1` the Potency was active: 20.6 µM.
For `CC1Cc2cc(-c3csc(N)n3)ccc2O1` (stereo unspecified), the Potency was inconclusive: 2.31 µM [activator, full curve].
With `COc1ccccc1NC(=O)c1sc2nc(-c3cc4ccccc4oc3=O)[nH]c(=O)c2c1C` the Potency was inconclusive: 29.1 µM [activator, single point].
In the case of `O=C(CCN1CCN(c2ccccc2)CC1)N/N=C/c1ccc([N+](=O)[O-])o1`, the Potency was active: 20.6 µM.
With `Cc1cc(C)cc(NC(=O)c2cccc(N3CCCS3(=O)=O)c2)c1` the Potency was inconclusive: 14.6 µM [activator, partial curve].
For `O=C1C(Cc2ccc(Br)cc2)SC(=Nc2ccccc2)N1c1ccccc1` (stereo unspecified), the Potency was inconclusive: 2.31 µM [falling, full curve, poor fit].
With `COc1cccc(NS(=O)(=O)c2cc3c(cc2C)N(C)CCO3)c1` the Potency was inconclusive: 14.6 µM [falling, partial curve, poor fit].
